For the test, the target named is CAR on CHO-CAR cells (UniProt P78310). Put plainly: flow cytometry on cells; CHO-CAR cells with serial dilutions of knob protein (0.0001-100 ug/10^5 cells) for 1 h on ice, washed, then stained for CAR with anti-CAR (RmcB) and a labelled secondary antibody; IC50 by non-linear regression; apparent; only the binder purified. Background: A flow cytometer gives signals particle by particle.

Chains of the proteins cited; added tags and fusions are not shown. Residues count along the entry.
UniProt P78310, residues 20-365: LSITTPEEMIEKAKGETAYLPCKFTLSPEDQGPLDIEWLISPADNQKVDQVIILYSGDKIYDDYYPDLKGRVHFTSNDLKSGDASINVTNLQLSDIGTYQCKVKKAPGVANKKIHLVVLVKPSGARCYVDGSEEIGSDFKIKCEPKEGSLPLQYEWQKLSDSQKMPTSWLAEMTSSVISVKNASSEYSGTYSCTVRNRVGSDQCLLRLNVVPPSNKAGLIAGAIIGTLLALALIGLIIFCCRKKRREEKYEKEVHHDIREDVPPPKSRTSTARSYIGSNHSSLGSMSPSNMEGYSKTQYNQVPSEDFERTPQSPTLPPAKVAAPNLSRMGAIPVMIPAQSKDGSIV

No constants are given. Whether binding was seen depends on the method and setting. Some binding calls cover weakened binding; strength is not graded here.

B1: HAdV-C5 fiber knob protein (domain or fragment, UniProt P11818 394-581)
chain: KNNDKLTLWTTPAPSPNCRLNAEKDAKLTLVLTKCGSQILATVSVLAVKGSLAPISGTVQSAHLIIRFDENGVLLNNSFLDPEYWNFRNGDLTEGTAYTNAVGFMPNLSAYPKSHGKTAKSNIVSQVYLNGDKTKPVTLTITLNGTQETGDTTPSAYSMSFSWDWSGHNYINEIFATSSYTFSYIAQE
Consider B1, for which the binding entry was “binds”.

Source of the values: paper PMC8971729.
